Test results published in the supplement of paper PMC4749390.
“And” between values parts separate entries of the source, which are not always exact repeats. Identical values can stand only once. Counter-ions that a name gives are not always drawn. Some of the results follow. Repeats in this data set agree poorly, so a single value says little.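 JEG3 cells stably carry tetracycline-induced wild-type human LRH-1, a heavily sumoylated nuclear receptor. APOC3 and MUC1 are SUMO-sensitive transcripts, raised by SUMO-less LRH-1 or UBC9 knockdown, measured by RT-qPCR against TBP and DMSO controls. A robust Z-score above +2 or below -2 marked a primary hit before toxicity and TBP filtering.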

System: JEG3 expressing hLRH-1
Assay: APOC3 transcript change (ddCt vs TBP and DMSO), Z-score over library; higher = higher APOC3 expression
Conditions: 10 µM; time (hr): 24

| Structure (SMILES) | APOC3 transcript change (Z-score) |
| --- | --- |
| COc1cc(NC(C)CCCN)c2ncccc2c1 (stereo unspecified) [primaquine diphosphate] | 0.93 |
| Cc1c(Cl)cccc1Nc1ccccc1C(=O)O [tolfenamic acid] | -0.426 |
| COc1ccc2cc([C@H](C)CO)ccc2c1 [naproxol] | -0.754 |
| COc1ccc2c3c1O[C@H]1C[C@@H](O)C=C[C@@]31CCN(C)C2 [galanthamine hydrobromide] | 0.0474 |
| O=C(O)COC(=O)Cc1ccccc1Nc1c(Cl)cccc1Cl [aceclofenac] | -0.0378 |
| Cc1cc(=O)oc2cc(O)ccc12 [hymechrome] | 0.0948 |
| CO/C(O)=C1\C(C)=NC(C)=C(C(=O)OC(C)C)C1c1cccc2nonc12 (stereo unspecified) [isradipine] | 0.962 |
| CC(C)(C(=O)c1cccnc1)c1cccnc1 [metyrapone] | 0.126 |
| O=c1[nH]c(=O)c2ccccc2o1 [carsalam] | 1.4 |
| CCCCC/N=C(\N)N/N=C/c1c[nH]c2ccc(OC)cc12 [tegaserod maleate] | 0.417 |
| CN1C(=O)CC(c2ccccc2)C1=O (stereo unspecified) [phensuccimide] | 0.298 |
| CCN(CCO)CCCC(C)Nc1ccnc2cc(Cl)ccc12 (stereo unspecified) [hydroxychloroquine sulfate] | -0.49 |
| NS(=O)(=O)c1cc2c(cc1C(F)(F)F)NC(Cc1ccccc1)NS2(=O)=O (stereo unspecified) [bendrofumethiazide] | 1.82 |
| C[C@]12CCC3c4ccc(O)cc4CCC3C1C[C@@H](O)[C@@H]2O (stereo partly specified) [estriol] | -0.498 |
| NCCCC(N)CC(=O)NCC1NC(=O)C(CO)NC(=O)C(N)CNC(=O)C(C2CCN=C(N)N2)NC(=O)/C(=C\NC(N)=O)NC1=O (stereo unspecified) [capreomycin sulfate] | 0.267 |
| CC(=O)Nc1nnc(S(N)(=O)=O)s1 [Acetazolamide] | -0.632 |
| CC(CCc1ccccc1)NCC(O)c1ccc(O)c(C(N)=O)c1 (stereo unspecified) [labetalol hydrochloride] | 1.35 |
| C/C=C/c1ccc(OC)cc1 [anethole] | -0.716 |
| COc1ccc(C(=O)NCc2ccc(OCCN(C)C)cc2)cc1OC [itopride  hydrochloride] | 0.0769 |
| CCOC(=O)NNc1nncc2ccccc12 [todralazine hydrochloride] | 0.65 |
| CO/N=C1\C[C@]2(C[C@@H]3C[C@@H](C/C=C(\C)C[C@@H](C)/C=C/C=C4\CO[C@@H]5[C@H](O)C(C)=C[C@@H](C(=O)O3)[C@]45O)O2)O[C@H](/C(C)=C/C(C)C)[C@H]1C [moxidectin] | 0.114 |

| Structure (SMILES) | APOC3 transcript change (Z-score) |
| --- | --- |
| NC(Cc1c[nH]c2ccccc12)C(=O)O (stereo unspecified) [tryptophan] | -0.0473 |
| CCCc1nc(C(C)(C)O)c(C(=O)O)n1Cc1ccc(-c2ccccc2-c2nn[nH]n2)cc1 [olmesartan] | -0.178 |
| CCCCC1=NC2(CCCC2)C(=O)N1Cc1ccc(-c2ccccc2-c2nn[nH]n2)cc1 [irbesartan] | -0.813 |
| N#Cc1ccc2[nH]cc(CCCCN3CCN(c4ccc5oc(C(N)=O)cc5c4)CC3)c2c1 [vilazodone hydrochloride] | -0.907 |
| C[C@H](CCC(=O)O)[C@H]1CCC2C3C(CC[C@@]21C)[C@@]1(C)CC[C@@H](O)C[C@H]1C[C@H]3O (stereo partly specified) [chenodiol] | 0.0163 |
| CN1CCC(=C2c3ccccc3CCc3cccnc32)CC1 [azatadine maleate] | 0.183 |
| OC[C@H]1O[C@H](O[C@H]2[C@H](O)[C@@H](O)[C@H](O)O[C@@H]2CO)[C@H](O)[C@@H](O)[C@@H]1O [d-(+)-maltose] | -0.231 |
| Nc1ccn([C@@H]2O[C@H](CO)[C@@H](O)[C@@H]2O)c(=O)n1 [cytarabine] | 1.89 |
| CCCCCCCC/C=C\CCCCCCCC(=O)O [ethanolamine oleate] | 0.424 |
| CN(C)CCCN1c2ccccc2CCc2ccccc21 [Imipramine hydrochloride] | -1.14 |
| Nc1nc(S)c2[nH]cnc2n1 [thioguanine] | -0.85 |
| O=C(O)[C@H]1/C(=C/CO)O[C@@H]2CC(=O)N21 [clavulanate lithium] | 0.497 |
| C[C@]12C=CC(=O)C=C1CCC1C2C(=O)C[C@@]2(C)C1CC[C@]2(O)C(=O)CO (stereo partly specified) [prednisone] | -0.552 |
| CC(c1cc2ccccc2s1)N(O)C(N)=O (stereo unspecified) [zileuton] | -0.305 |
| CCN(CC)CCCC(C)Nc1c2ccc(Cl)cc2nc2ccc(OC)cc12 (stereo unspecified) [Quinacrine dihydrochloride] | 6.71 |
| CC(=O)OCC(=O)[C@@]1(O)[C@@H](C)CC2C3CCC4=CC(=O)C=C[C@]4(C)[C@@]3(F)[C@@H](O)C[C@@]21C (stereo partly specified) [betamethasone acetate] | -0.398 |
| O=C1CCc2cc(OCCCCc3nnnn3C3CCCCC3)ccc2N1 [cilostazol] | 0.00411 |
| CCCCOCCOCCOCc1cc2c(cc1CCC)OCO2 [piperonyl butoxide] | -0.631 |
| O=C1OC(CN2CCOCC2)CN1/N=C/c1ccc([N+](=O)[O-])o1 (stereo unspecified) [furaltadone] | -0.0298 |
| C=CC1=C(C(=O)O)N2C(=O)[C@@H](NC(=O)/C(=N\O)c3csc(N)n3)[C@H]2SC1 [cefdinir] | -0.18 |
| CCCCCCCCCCCCCCCC(=O)NCCO [palmidrol] | -0.142 |

| Structure (SMILES) | APOC3 transcript change (Z-score) |
| --- | --- |
| CO[C@H]1O[C@@H]2O[C@@]3(C)CC[C@H]4[C@H](C)CC[C@@H]([C@H]1C)[C@@]24OO3 [artemether] | 0.652 |
| C[C@@H](c1ncncc1F)[C@](O)(Cn1cncn1)c1ccc(F)cc1F [voriconazole] | -0.515 |
| NC12CC3CC(CC(C3)C1)C2 [Amantadine hydrochloride] | 0.0418 |
| CCCCC1C(=O)N(c2ccccc2)N(c2ccc(O)cc2)C1=O (stereo unspecified) [oxyphenbutazone] | 1.05 |
| O=C(C1CCCCC1)N1CC(=O)N2CCc3ccccc3C2C1 (stereo unspecified) [praziquantel] | 0.0277 |
| C[C@H](CCC(=O)O)[C@H]1CCC2C3C(=O)CC4CC(=O)CC[C@]4(C)C3CC(=O)[C@@]21C (stereo partly specified) [sodium dehydrocholate] | -0.0839 |
| Cc1cc(-c2ccc(N=Nc3ccc4c(S(=O)(=O)O)cc(S(=O)(=O)O)c(N)c4c3O)c(C)c2)ccc1N=Nc1ccc2c(S(=O)(=O)O)cc(S(=O)(=O)O)c(N)c2c1O [evans blue] | 0.979 |
| O=C1CC2(CCCC2)CC(=O)N1CCCCN1CCN(c2ncccn2)CC1 [Buspirone hydrochloride] | 0.458 |
| CC(=O)N(O)CCCCCNC(=O)CCC(=O)N(O)CCCCCNC(=O)CCC(=O)N(O)CCCCCN [deferoxamine mesylate] | 0.819 |
| O=C(CCCN1CCN(c2ccccn2)CC1)c1ccc(F)cc1 [azaperone] | 0.0291 |
| CN1CCC(=C2c3ccccc3Sc3ccccc32)CC1 [pimethixene maleate] | 1.88 |
| C[C@]12CC[C@@H]3c4ccc(O)cc4CC[C@H]3[C@@H]1CC[C@@H]2OC(=O)CCC1CCCC1 [estradiol cypionate] | -0.288 |
| CC(=O)Nc1ccc(OC(C)=O)cc1 [diacetamate] | 0.179 |
| CCC(Cc1c(I)cc(I)c(N)c1I)C(=O)O (stereo unspecified) [iopanic acid] | 1.15 |
| CCC(NC(C)C)C(O)c1ccc(O)c(O)c1 (stereo unspecified) [isoetharine mesylate] | 0.166 |
| Cn1c([N+](=O)[O-])cc[n+]1C [dimetridazole] | 0.484 |
| CCN(CC)C(=O)/C(C#N)=C/c1cc(O)c(O)c([N+](=O)[O-])c1 [entacapone] | -0.498 |
| CCOC(=O)C(C)(C)Oc1ccc(Cl)cc1 [Clofibrate] | -0.0616 |
| NCc1ccc(S(N)(=O)=O)cc1 [mafenide hydrochloride] | 0.312 |
| CN(C)CCOC(c1ccc(Cl)cc1)c1ccccn1 (stereo unspecified) [carbinoxamine maleate] | 1.37 |
| CC(C)[C@H](N)C(=O)OCC(CO)OCn1cnc2c(O)nc(N)nc21 (stereo partly specified) [valganciclovir hydrochloride] | -0.255 |

| Structure (SMILES) | APOC3 transcript change (Z-score) |
| --- | --- |
| CCCN(CCC)C(=O)C(CCC(=O)O)NC(=O)c1ccccc1 (stereo unspecified) [Proglumide] | 1.8 |
| C[C@H](COc1ccccc1)N[C@H](C)[C@H](O)c1ccc(O)cc1 [isoxsuprine hydrochloride] | -0.0531 |
| CS(=O)(=O)OCCCCOS(C)(=O)=O [busulfan] | 0.0876 |
| CC(C)Oc1ccc2c(=O)cc(-c3ccccc3)oc2c1 [ipriflavone] | -0.139 |
| COc1cc2nc(N3CCN(C(=O)C4CCCO4)CC3)nc(N)c2cc1OC (stereo unspecified) [terazosin hydrochloride] | -0.221 |
| COc1cc(OC)c(C(=O)CCCN2CCCC2)c(OC)c1 [buflomedil hydrochloride] | -0.705 |
| CCC(=O)c1ccc(O)cc1 [paroxypropione] | -0.746 |
| CC[C@H]1OC(=O)[C@H](C)[C@@H](O[C@H]2C[C@@](C)(OC)[C@@H](O)[C@H](C)O2)[C@H](C)[C@@H](O[C@@H]2O[C@H](C)C[C@H](N(C)C)[C@H]2O)[C@](C)(O)C[C@@H](C)C(=O)[C@H](C)[C@@H](O)[C@]1(C)O [erythromycin] | -0.298 and -0.55 |
| Oc1ccc(Cl)c2cccnc12 [cloxyquin] | 0.561 |
| Cn1ccnc1S [methimazole] | 0.405 |
| COc1ccc(C2CNC(=O)C2)cc1OC1CCCC1 (stereo unspecified) [Rolipram] | 1.13 |
| CCC1(c2ccccc2)C(=O)NCNC1=O [Primidone] | 0.865 |
| CC1CC(OC(=O)c2ccccc2O)CC(C)(C)C1 (stereo unspecified) [homosalate] | 0.18 |
| CC(C)(Oc1ccc(Cl)cc1)C(=O)O [clofibric acid] | 0.437 |
| CC(=O)NO [acetohydroxamic acid] | -0.177 |
| O=C(O)c1cc(-c2ccc(F)cc2F)ccc1O [diflunisal] | -0.185 |
| CC(=O)CC(c1ccc([N+](=O)[O-])cc1)c1c(O)oc2ccccc2c1=O (stereo unspecified) [acenocoumarol] | -0.519 |
| Cn1cnc([N+](=O)[O-])c1Sc1[nH]cnc2ncnc1-2 [Azathioprine] | 0.863 |
